Data published in US10695333B2 (NOVARTIS AG, priority 2017, dated 2020).

System: MCF-7 parental (ER wildtype) cells
Experiment: cells
Conditions: Homo sapiens, MCF7, 168 h, read-out: MCF-7 proliferation Ave IC50, ESR1 WT

CC/C(=C(\c1ccccc1)c1ccc(OCCN(C)C)cc1)c1ccccc1 [Tamoxifen, reference compound]
IC50: 4.5 nM
